No constants are given. Whether binding was seen depends on the method and setting. Some results given as binding are weak or reduced against the parent protein; the word gives no strength.
Target: T1, RAD51AP1 (human) (UniProt Q96B01)
T1 sequence: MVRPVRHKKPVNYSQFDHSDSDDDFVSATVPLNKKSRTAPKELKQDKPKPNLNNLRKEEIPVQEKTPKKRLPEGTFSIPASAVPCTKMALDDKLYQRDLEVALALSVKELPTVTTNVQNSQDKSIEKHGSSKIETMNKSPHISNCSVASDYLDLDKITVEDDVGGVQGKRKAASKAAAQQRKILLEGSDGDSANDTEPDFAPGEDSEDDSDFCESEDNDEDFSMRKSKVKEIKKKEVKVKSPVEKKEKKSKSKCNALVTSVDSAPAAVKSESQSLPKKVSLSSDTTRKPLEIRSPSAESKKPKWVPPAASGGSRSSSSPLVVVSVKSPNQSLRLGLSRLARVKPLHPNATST
Assay: pull-down; GST or MBP-tagged RAD51AP1 (2 ug) and Strep II-tagged UAF1 (2 ug) in 30 ul of 25 mM Tris-HCl pH 7.5, 10% glycerol, 0.5 mM EDTA, 0.01% Igepal, 1 mM DTT, 150 mM KCl for 30 min; captured on glutathione or amylose resin at 4 C for 1 h; SDS eluate on SDS-PAGE, Coomassie Blue; both purified

Chains of the proteins cited; added tags and fusions are not shown.
UniProt Q8TAF3: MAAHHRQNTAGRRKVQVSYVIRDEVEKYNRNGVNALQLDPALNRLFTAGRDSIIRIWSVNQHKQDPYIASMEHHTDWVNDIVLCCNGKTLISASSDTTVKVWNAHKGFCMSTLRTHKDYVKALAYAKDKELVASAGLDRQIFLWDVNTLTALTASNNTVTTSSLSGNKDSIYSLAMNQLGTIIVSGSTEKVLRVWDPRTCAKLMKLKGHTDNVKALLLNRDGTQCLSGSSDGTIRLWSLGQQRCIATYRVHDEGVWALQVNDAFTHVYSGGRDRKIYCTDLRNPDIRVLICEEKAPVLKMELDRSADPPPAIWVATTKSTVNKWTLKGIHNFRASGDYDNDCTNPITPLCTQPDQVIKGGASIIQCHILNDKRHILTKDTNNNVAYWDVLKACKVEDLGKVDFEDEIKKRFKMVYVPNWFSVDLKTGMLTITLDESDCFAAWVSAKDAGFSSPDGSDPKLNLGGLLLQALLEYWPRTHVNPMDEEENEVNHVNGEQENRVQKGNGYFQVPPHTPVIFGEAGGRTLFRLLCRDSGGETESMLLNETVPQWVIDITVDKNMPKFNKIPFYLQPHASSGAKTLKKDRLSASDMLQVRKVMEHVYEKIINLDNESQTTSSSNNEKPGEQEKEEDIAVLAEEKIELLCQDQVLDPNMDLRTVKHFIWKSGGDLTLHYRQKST

binding: binds
Substance: UAF1 (from UniProt Q8TAF3 1-677)
